In the supplement of paper PMC5949888:
Most values lie at the floor of the assay. Slopes are relative: functional sequences can read slightly below zero.

System: Saccharomyces cerevisiae PS128 hsf1 delta, HSF1(1-493) fusion
Assay: growth estimate (transactivation domain function in HSF1 fusion, heat-shock survival) (a.u. (slope of normalised read count over time)); higher = stronger growth at 37°C, i.e. more transactivation activity
Details: library: random library

| Substance | growth estimate |
| --- | --- |
| MCNQSAHRRSSGRAMAMRIF | -0.25 |
| TYFSLRGRWVRLGWICTISA | < -0.25 |
| YMTCNTAVFRRVAAAVNVTI | < -0.25 |
| YKVVKLFIPEPRQSVFFQNA | < -0.25 |
| CTVRPVPMVRYTTAL | < -0.25 |
| IQTLCSRRLYTADS | < -0.25 |
| LAPPWDHRLPWR | -0.149 |
| FTVQPRM | < -0.25 |
| GHRWILICDRYLLGWLASPS | < -0.253 |
| QRALIDAQH | < -0.25 |
| GTAG | < -0.25 |
| TEWFRSSWVPINQSRLPVSL | < -0.25 |
| QAVPSRDRHSLRIL | < -0.25 |
| SCERVMRRGTQLSSLWKCTA | < -0.25 |
| PFMNARVGGSQCRDVKCLLR | < -0.25 |
| CIASLCGLEQRSGR | < -0.25 |
| IGQWSNAERLTPYHTQASDS | < -0.25 |
| CADCQHTDTSVLETAEKEPP | < -0.25 |
| FADRVCVSEL | < -0.25 |
| HAFERFLYLKLAQWYNARRA | < -0.25 |
| LKGSLGLALVVFTGATWMVF | < -0.25 |
| GQAGHSWFMAPVSHAFSTPN | -0.241 |
| RFRPLADGWLYLRYNVGDRP | < -0.25 |
| IGGGCSRSSCRWRSFGGYRP | < -0.25 |

| Substance | growth estimate |
| --- | --- |
| CAPAILHTRRRKGLQGYIWA | < -0.25 |
| GYRLRPR | < -0.25 |
| RAT | < -0.25 |
| VLRVREIAIP | < -0.25 |
| GTTRGGRA | < -0.25 |
| EPRLEG | < -0.25 |
| AMGGSGWARSLGLSSTVSWV | < -0.25 |
| IGSFCAAHLRY | < -0.25 |
| CTPPIQRCIMISRVWVAEAL | < -0.25 |
| LNRVML | < -0.25 |
| PGKRVLMDRCVLPRAFKGWQ | < -0.25 |
| EPQFATSYCPSVHRVFGEYP | < -0.25 |
| KWGHYHRL | < -0.25 |
| CGLSAHGIPCTDGDCRYWGS | < -0.25 |
| QPYVHSSVNGRT | < -0.25 |
| HRQPIKMARPMLRWISSRAL | < -0.25 |
| MEPKGGTRTLGVV | < -0.25 |
| RKYQYFCRGFGEVHHLCNAS | < -0.25 |
| QCW | < -0.25 |
| ASES | < -0.25 |
| IDAVLRRPVIGVDEVSSGRY | < -0.25 |
| ADNWWWTAIKEGTHSWVGDN | 9.56 |
| TPFALASCHGRSVVSG | < -0.25 |
| GRCTYSSPYGLACFLACLHC | < -0.25 |

Rewritten as tab-separated lines: entries from further up
Substance	growth estimate
GYRLRPR	< -0.25
RAT	< -0.25
VLRVREIAIP	< -0.25
GTTRGGRA	< -0.25
EPRLEG	< -0.25
AMGGSGWARSLGLSSTVSWV	< -0.25

A second format for some results above.
Substance | growth estimate
IGGGCSRSSCRWRSFGGYRP | < -0.25
ADNWWWTAIKEGTHSWVGDN | 9.56

Next part:

| Substance | growth estimate |
| --- | --- |
| KPEVGY | < -0.25 |
| YSGRCEMKHTRLQA | < -0.25 |
| WTPILFFPRLRLVRVAKQHS | < -0.25 |
| AKIP | < -0.25 |
| VADVDPPARKLGILSGLD | < -0.25 |
| GTTNRRL | < -0.25 |
| RLLTGGGWGFYGDITAPRVK | < -0.25 |
| TERCGGHS | < -0.25 |
| QVVYKLLSKIRNFMPWIPGK | < -0.25 |
| FGGRVSLNSSCSFQSIAACG | < -0.25 |
| AFLNPTRVLSVPN | < -0.25 |
| KLKTCSELAYAPTKLWVY | < -0.25 |
| STESSRHRPHARHALTASLT | < -0.25 |
| WVSVRIGIICGAFDFWRSGA | < -0.25 |
| GQSKTTSSAPLIPLNTAVLR | < -0.25 |
| AGSCCLAEWKCNKMR | < -0.25 |
| FQLASSAMVSDDQIMVEAVK | < -0.25 |
| SPPRTKERGPL | < -0.25 |
| RSGT | < -0.25 |
| LQFSGQPSCRGGGSISNGRP | < -0.25 |
| VRWLLNWWL | < -0.25 |
| TGWMRRKALFVFWHRVQHLP | < -0.25 |
| HCFASSSRRVPVCPARVAWP | < -0.25 |
| WHREYC | < -0.25 |

| Substance | growth estimate |
| --- | --- |
| FLPHNGSIVG | < -0.25 |
| LIRSSRLMKHPIMQIGTEVT | < -0.25 |
| RDLPASKW | < -0.25 |
| LIWGGPPIALLGRPAGNCLP | < -0.25 |
| ERLMSGSESHLNRKSTARDP | < -0.25 |
| LSR | < -0.25 |
| FVHCYLRWESEPLEFYLNGV | < -0.25 |
| LSCVPTVELTGDDPHWNPDR | < -0.25 |
| WAGGFLVRAESSRIRSVRPE | < -0.25 |
| VNSHCLTIWVSLIIFLRSQH | < -0.25 |
| VIGYIRTWALTAYPSTIAVG | < -0.25 |
| VDLHRLAPLSFTFARAIHLW | < -0.25 |
| LPRRC | < -0.25 |
| PDCGVRRLRRYANENRD | < -0.25 |
| TARPQGRFFCGQEDIPG | < -0.25 |
| AYVTGWNDRIRHLLP | < -0.25 |
| YVSFRFEEVLPAAVDELSGA | < -0.25 |
| VPWILAGSHRGAM | < -0.25 |
| GESVIRFFRVGLVGCHIGHS | < -0.25 |
| SLGRDSSKVNSHQWGVIRR | -0.243 |
| ARTNDTAGSMPQRRVDRCS | < -0.25 |
| LEEENARTFLSIAWCHAHS | < -0.25 |
| TFFASNEDIRLHGLRSAGC | -0.231 |
| LIPV | < -0.25 |

An excerpt of these results, with tabs:
Substance	growth estimate
LAPPWDHRLPWR	-0.149
FADRVCVSEL	< -0.25
PGKRVLMDRCVLPRAFKGWQ	< -0.25
WTPILFFPRLRLVRVAKQHS	< -0.25
AFLNPTRVLSVPN	< -0.25
LQFSGQPSCRGGGSISNGRP	< -0.25
GESVIRFFRVGLVGCHIGHS	< -0.25

More records.

| Substance | growth estimate |
| --- | --- |
| VLLS | -0.0823 |
| FLLYSNRGRG | < -0.25 |
| TPWMVKQT | < -0.25 |
| RGGLANTRKECATSRTRILP | < -0.25 |
| LVCRIFRVRQT | < -0.25 |
| SKSRRSPRRSLEDGHARCDD | < -0.25 |
| YWAYMGGRAVKGFVLRTASL | < -0.25 |
| ASGRDETGLSTADVQSTLIG | -0.243 |
| GDYGISSTTLRTILDRMQSS | < -0.25 |
| FVMGLVAPTDGGCVGFATCR | < -0.25 |
| FQSYALSC | < -0.25 |
| GQENVSFMCKL | < -0.25 |
| HDLPGTPIY | < -0.25 |
| LDREIIFGLNRTPWMLSAYE | < -0.25 |
| GNLNAMLKAYLAPSPNNTDP | < -0.25 |
| LISRLAREYHVQIAHGLSGL | < -0.25 |
| NPENFAIKSALKRAEPCL | < -0.25 |
| PAGLVSE | < -0.25 |
| GKM | < -0.25 |
| TKWTSPPELLPACLF | -0.241 |
| GSC | < -0.25 |
| QGYSKRWTGLGQLRNSGNR | < -0.25 |
| MTGVYEPL | < -0.25 |
| CIIRATEGRALSVVEPQITQ | < -0.25 |

| Substance | growth estimate |
| --- | --- |
| HRTQGE | < -0.25 |
| FIL | < -0.25 |
| IFFSTRSHTR | < -0.25 |
| LIRAGVSCNLCYAWPDACPW | < -0.25 |
| HKLTGDGQFKDHDVSVLLLR | < -0.25 |
| WYPLTILYPPAAPHTLLSDG | < -0.25 |
| GPPTEWIGCI | < -0.25 |
| VECRRHVFGCLGQMSPRTRR | < -0.25 |
| SFHRGAKGE | < -0.25 |
| RRRSRYSLEGNLRWGCHSLG | < -0.25 |
| NGDLEVLQRRVTRQVPSKPV | < -0.25 |
| SVCLSGYRKRMSFRVGTRRQ | < -0.25 |
| RMKGLC | < -0.25 |
| RIKGVVELCVVGVKGTIRPT | < -0.25 |
| GPSHLGVGIPLNSLV | < -0.25 |
| KGCEVAVFVTGGTTF | < -0.25 |
| SPAQRVMYHSLNLRATRELG | < -0.25 |
| LYLVWDPVTAHSLEPADVFL | < -0.25 |
| VSEDRFSAQFGSEK | < -0.25 |
| GGEGV | < -0.25 |
| CVSLRQTPTCSNQNRRPNSL | < -0.25 |
| GCRCLSGIWYGVNARRINQA | < -0.25 |
| SFVIG | < -0.25 |
